Measurements taken from the supplement of paper PMC5949888.
Most values lie at the floor of the assay. Slopes are relative: functional sequences can read slightly below zero.

System: Saccharomyces cerevisiae PS128 hsf1 delta, HSF1(1-493) fusion
Test: growth estimate (transactivation domain function in HSF1 fusion, heat-shock survival) (a.u. (slope of normalised read count over time)); higher = stronger growth at 37°C, i.e. more transactivation activity
Conditions: library: random library

Substance | growth estimate
RSAFLFSFMLPRGKWQYYSG | < -0.25
RSAGLRTGWYRRGALVSSER | < -0.25
RSALGQDTRAGVTLTHCTLR | < -0.25
RSAPAISSQSLRLGGEVFRF | < -0.25
RSAPSHSCPSIRRLLADYPC | < -0.25
RSARPVPDVPILNSTSRRND | < -0.25
RSATTRRLPRRPGLVRAIVG | < -0.25
RSAVLYGRSTE | < -0.25
RSAYGIAAERPCAGCTGRKQ | < -0.25
RSAYVCRPVAGPVKALHSTN | < -0.25
RSCLEVRVTGHGTRLSVDSA | < -0.25
RSCRIVQVGPISPRCVLRSR | < -0.25
RSCRR | < -0.25
RSD | < -0.25
RSDGFP | < -0.25
RSEQEREERSKRLD | < -0.25
RSESTVK | < -0.25
RSEVGT | -0.22
RSF | < -0.25
RSFALDK | < -0.25
RSFL | < -0.25
RSFQVINVSNRYAGAPETAG | < -0.25
RSFTSHGSNGP | < -0.25
RSGGKKCKLVSNDSGKQGPI | < -0.25
RSGGTHWNTPNGRRLAKTHT | < -0.25
RSGGYTFLLR | < -0.25

Part of the list above, with each value named.
RSFL
  growth estimate: < -0.25
RSFQVINVSNRYAGAPETAG
  growth estimate: < -0.25

(list continues)

Substance | growth estimate
RSGINSEGDRS | < -0.25
RSGLHAKNVMATDVTGMMSQ | < -0.25
RSGLRPLCT | < -0.25
RSGSRGHGGARNAGQGKTVC | < -0.25
RSGSSAY | < -0.25
RSGTIIRRRSASAYGWATKY | < -0.25
RSGVNSRCCFAIELLVAVST | < -0.25
RSGVRG | < -0.25
RSHGPM | < -0.25
RSHPRESGVAAGERHIQGKS | < -0.25
RSIRQC | -0.246
RSKGIESHEVLAAGTEEGLL | < -0.25
RSKGRRFNRSPRPMTALFPQ | < -0.25
RSKPPWLNVLSSVATLVARP | < -0.25
RSLAGEGSAYVYPGAIPDLG | < -0.25
RSLCSYHAL | < -0.25
RSLEVQELHQRG | < -0.25
RSLLMHVMCGRGLG | < -0.25
RSLRTIVGAIISGTHEH | < -0.25
RSMVRWRIGLRG | < -0.25
RSP | < -0.25
RSPARSVCANRKTYFVLRHN | < -0.25
RSPD | < -0.25
RSPDPSPTSQMRAGH | < -0.25
RSPGRE | < -0.25
RSPGYSLVRKASWTKAVCSA | < -0.25

Substance | growth estimate
RSPW | < -0.25
RSQGPPCVQPCERGC | < -0.25
RSQIVQPGNVGEQPMSVAGS | < -0.25
RSQPGTTQGDRHSAT | < -0.25
RSRCPLISLAAHPWLGHI | < -0.25
RSRCSL | < -0.25
RSRDSCC | < -0.25
RSRDWLCTVRWCTLT | < -0.25
RSRE | < -0.25
RSRHWLFCRASTDSRIVSCQ | < -0.25
RSRI | < -0.25
RSRQGSV | < -0.25
RSRVDKRLEPTQGHRSLGSE | < -0.25
RSRYITVGGAWAELPQLPLR | < -0.25
RSSFHCSTAHRRLIAGCVTR | < -0.25
RSSFRPITVMFMTGKPMTLH | < -0.25
RSSNHQSSVVDVGNFVPLER | < -0.25
RSSNSGVDAGR | < -0.25
RSSPLLLCYAVRPVARAYTA | < -0.25
RSSTDKATLG | < -0.25
RSSTIFNTAFPKTASQPPLG | < -0.25
RSSTTFVN | < -0.25
RSSVVSIRTRRTVPW | < -0.253
RSSYAHVHRASGTGDSIDQI | < -0.25
RSTE | < -0.25
RSTFIISARFWLYRVA | < -0.25

Substance | growth estimate
RSTGLEISYRRDS | < -0.25
RSTIDRPIQLAACRPVCC | < -0.25
RSTLLDRSNTSVPQITHFAV | < -0.25
RSTRYCIRSSPI | < -0.25
RSVLVSR | < -0.25
RSVYMEADHDHHSRRA | < -0.25
RSWI | -0.243
RSWSEVA | < -0.25
RSWVRA | < -0.25
RSWVVDDYQNLFIKARSDPF | -0.24
RSYTGNFKYLNEIVV | < -0.25
RSYVGYFSQTILHIFKIH | < -0.25
RTA | < -0.25
RTAC | < -0.25
RTAKGAMNQGCGTLKGSRRA | < -0.25
RTALISA | < -0.25
RTAPRTHRRNLAIDALHALS | < -0.25
RTARTFGAYHGESVLQG | < -0.25
RTARYGRRG | < -0.25
RTASQLRAGLVVPDWF | < -0.25
RTCEVSAWTTRRRSDSSSSF | < -0.25
RTCGQVDRHTPRLALIKAAQ | < -0.25
RTCSCRFKPLG | < -0.25

Looked up one by one from above (two):
Substance | growth estimate
RSWSEVA | < -0.25
RTCEVSAWTTRRRSDSSSSF | < -0.25
